Laboratory results from US7157457B2, “Compounds useful in the treatment of inflammatory diseases” (Glaxo Group Limited, priority 2000, dated 2007).
Some results were stated once for a whole list of compounds, not compound by compound.

Molecular target: T1, CCR-3 (Homo sapiens, UniProt P51677)
T1 sequence (P51677 1-355): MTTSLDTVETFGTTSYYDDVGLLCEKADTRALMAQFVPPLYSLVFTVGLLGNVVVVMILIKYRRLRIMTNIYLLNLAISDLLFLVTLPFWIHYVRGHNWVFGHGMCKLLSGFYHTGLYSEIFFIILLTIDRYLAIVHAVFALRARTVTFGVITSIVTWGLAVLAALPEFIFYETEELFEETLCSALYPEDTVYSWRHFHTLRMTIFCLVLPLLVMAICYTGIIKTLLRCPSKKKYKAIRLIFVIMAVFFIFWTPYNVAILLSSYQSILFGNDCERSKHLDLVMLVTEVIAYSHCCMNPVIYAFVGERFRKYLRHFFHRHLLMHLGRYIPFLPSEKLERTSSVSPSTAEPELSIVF
Assay: CCR-3 competition binding SPA ([125I]eotaxin)
Parameters: expressed in transfected cells
Details: inhibition of [125I]eotaxin binding to membranes of K562 cells stably expressing CCR-3; mean of at least two experiments
Procedure: A CCR-3 competition binding SPA (scintillation proximity assay) was used to assess the affinity of novel compounds for CCR-3. Membranes prepared from K562 cells stably expressing CCR-3 (2.5 μg/well) were mixed with 0.25 mg/well wheat-germ agglutinin SPA beads (Amersham) and incubated in binding buffer (HEPES 50 mM, CaCl2 1 mM, MgCl2 5 mM, 0.5% BSA) at 4° C. for 1.5 hr. Following incubation, 20 pM of [^125I] eotaxin (Amersham) and increasing concentrations of compound (1 pM to 30 μM) were added and incubated in a 96 well plate for 2 hr at 22° C. then counted on a Microbeta plate counter. The total assay volume was 100 μl. Competition binding data were analysed by fitting the data with a four parameter logistic equation. Data are presented as the mean pIC50 values (negative logarithm of the concentration of compound which inhibits [^125I]eotaxin binding by 50%) from at least two experiments.

CCR-3 Binding Assay (pIC50), greater than 5.0:
C=CCCN1CCOC(CNC(=O)Nc2ccc(Cl)cc2)C1 (stereo not drawn) [Example 27, N-[(4-But-3-enylmorpholin-2-yl)methyl]-N′-(4-chlorophenyl)urea]
O=C(NCCCS(=O)(=O)N1CCCC1)NC[C@H]1CN(Cc2ccc(Cl)c(Cl)c2)CCO1 [Example 189, N-{[(2S)-4-(3,4-dichlorobenzyl)morpholin-2-yl]methyl}-N′-[3-(pyrrolidin-1-ylsulfonyl)propyl]urea]
O=C(NCc1ccccc1C(F)(F)F)NCC1CN(Cc2ccc(Cl)c(Cl)c2)CCO1 (stereo not drawn) [Example 86, N-{[4-(3,4-dichlorobenzyl)morpholin-2-yl]methyl}-N′-[2-(trifluoromethyl)benzyl]urea]
O=C(NCC1CN(Cc2ccc(Cl)c(Cl)c2)CCO1)Nc1ccc(-c2ccccc2)cc1 (stereo not drawn) [Example 32, N-(1,1′-Biphenyl-4-yl)-N′-{[4-(3,4-dichlorobenzyl)morpholin-2-yl]methyl}urea]
C[C@H]1CO[C@H](CNC(=O)NCc2ccccc2)CN1Cc1ccc(Cl)c(Cl)c1 [Example 59, N-benzyl-N′-{[(2R,5S)-4-(3,4-dichlorobenzyl)-5-methylmorpholin-2-yl]methyl}urea]
O=C(NC[C@H]1CN(Cc2ccc(Cl)c(Cl)c2)CCO1)N1CCCc2ccccc2C1 [Example 179, N-{[(2S)-4-(3,4-dichlorobenzyl)morpholin-2-yl]methyl}-1,3,4,5-tetrahydro-2H-2-benzazepine-2-carboxamide]
CN(C(=O)NCC1CN(Cc2ccc(Cl)c(Cl)c2)CCO1)c1ccc(F)cc1 (stereo not drawn) [Example 43, N′-{[4-(3,4-Dichlorobenzyl)morpholin-2-yl]methyl}-N-(4-fluorophenyl)-N-methylurea]
COc1ccc(C(=O)CNC(=O)NC[C@H]2CN(Cc3ccc(Cl)c(Cl)c3)CCO2)cc1 [Example 178, N-{[(2S)-4-(3,4-dichlorobenzyl)morpholin-2-yl]methyl}-N′-[2-(4-methoxyphenyl)-2-oxoethyl]urea]
Nc1c(CNC(=O)NCC2CN(Cc3ccc(Cl)c(Cl)c3)CCO2)cnn1-c1ccccc1 (stereo not drawn) [Example 116, N-[(5-amino-1-phenyl-1H-pyrazol-4-yl)methyl]-N′-{[4-(3,4-dichlorobenzyl)morpholin-2-yl]methyl}urea]
O=C(NCC1CN(Cc2ccc(Cl)c(Cl)c2)CCO1)N(CCCO)c1ccccn1 (stereo not drawn) [Example 164, N′-{[4-(3,4-dichlorobenzyl)morpholin-2-yl]methyl}-N-(3-hydroxypropyl)-N-pyridin-2-ylurea]
COCCN1CCOC(CNC(=O)Nc2ccc(Cl)cc2)C1 (stereo not drawn) [Example 29]
O=C(NCC1CN(Cc2ccc(Cl)c(Cl)c2)CCO1)Nc1ccc(Cl)cc1 (single isomer, unassigned; isomer 1) [Example 50, N-(4-Chlorophenyl)-N′-[4-(3,4-dichlorobenzyl)morpholin-2-yl]methyl}urea (ISOMER 1)]
O=C(NCc1cccc(S(=O)(=O)NC2CC2)c1)NC[C@H]1CN(Cc2ccc(Cl)c(Cl)c2)CCO1 [Example 139, N-cyclopropyl-3-({[({[(2S)-4-(3,4-dichlorobenzyl)morpholin-2-yl]methyl}amino)carbonyl]amino}methyl)benzenesulfonamide]
CC(c1ccc(Cl)c(Cl)c1)N1CCO[C@@H](CNC(=O)NCc2ccc(C(N)=O)cc2)C1 (single isomer, unassigned; isomer ii) [Example 185]
CNC(=O)c1cccc(CNC(=O)NCC2CN(Cc3ccc(Cl)c(Cl)c3)CCO2)c1 (stereo not drawn) [Example 81, 3-({[({[4-(3,4-dichlorobenzyl)morpholin-2-yl]methyl}amino)carbonyl]amino}methyl)-N-methylbenzamide]
C=CCNC(=O)NC[C@H]1CN(Cc2ccc(Cl)c(Cl)c2)CCO1 [Example 101, N-allyl-N′-{[(2S)-4-(3,4-dichlorobenzyl)morpholin-2-yl]methyl}urea]
CC(C)S(=O)(=O)CCCNC(=O)NC[C@H]1CN(Cc2ccc(Cl)c(Cl)c2)CCO1 [Example 146, N-{[(2S)-4-(3,4-dichlorobenzyl)morpholin-2-yl]methyl}-N′-[3-(isopropylsulfonyl)propyl]urea]
Cc1cc(CNC(=O)NCC2CN(Cc3ccc(Cl)c(Cl)c3)CCO2)no1 (stereo not drawn) [Example 83, N-{[4-(3,4-dichlorobenzyl)morpholin-2-yl]methyl}-N′-[(5-methylisoxazol-3-yl)methyl]urea]
C#CCCNC(=O)NCC1CN(Cc2ccc(Cl)c(Cl)c2)CCO1 (stereo not drawn) [Example 121, N-but-3-ynyl-N′-{[4-(3,4-dichlorobenzyl)morpholin-2-yl]methyl}urea]
C[C@@H]1CO[C@@H](CNC(=O)NCc2ccccc2)CN1Cc1ccc(Cl)c(Cl)c1 [Example 60, N-benzyl-N′-{[(2S,5R)-4-(3,4-dichlorobenzyl)-5-methylmorpholin-2-yl]methyl}urea]
O=C(NCc1ccc2c(c1)CCO2)NCC1CN(Cc2ccc(Cl)c(Cl)c2)CCO1 (stereo not drawn) [Example 82, N-{[4-(3,4-dichlorobenzyl)morpholin-2-yl]methyl}-N′-(2,3-dihydro-1-benzofuran-5-ylmethyl)urea]
CN(C)c1cccc(CNC(=O)NCC2CN(Cc3ccc(Cl)c(Cl)c3)CCO2)c1 (stereo not drawn) [Example 95, N-{[4-(3,4-dichlorobenzyl)morpholin-2-yl]methyl}-N′-[3-(dimethylamino)benzyl]urea]
N#CCN1CCOC(CNC(=O)Nc2ccc(Cl)cc2)C1 (stereo not drawn) [Example 46, N-(4-Chlorophenyl)-N′-{[4-(cyanomethyl)morpholin-2-yl]methyl}urea]
O=C(NCc1ccc2[nH]ccc2c1)NCC1CN(Cc2ccc(Cl)c(Cl)c2)CCO1 (stereo not drawn) [Example 78, N-{[4-(3,4-dichlorobenzyl)morpholin-2-yl]methyl}-N′-(1H-indol-5-ylmethyl)urea]
O=C(NCC1CN(Cc2ccc(Cl)c(Cl)c2)CCO1)NCC1CN(Cc2ccc(Cl)c(Cl)c2)CCO1 (stereo not drawn) [Example 64, N,N′-bis{[4-(3,4-dichlorobenzyl)morpholin-2-yl]methyl}urea]
O=C(NCc1ccco1)NCC1CN(Cc2ccc(Cl)c(Cl)c2)CCO1 (stereo not drawn) [Example 119, N-{[4-(3,4-dichlorobenzyl)morpholin-2-yl]methyl}-N′-(2-furylmethyl)urea]
O=C(NCCCS(=O)(=O)c1ccccc1)NCC1CN(Cc2ccc(Cl)c(Cl)c2)CCO1 (stereo not drawn) [Example 122, N-{[4-(3,4-dichlorobenzyl)morpholin-2-yl]methyl}-N′-[3-(phenylsulfonyl)propyl]urea]
CS(=O)(=O)c1ccc(CNC(=O)NCC2CN(Cc3ccc(Cl)c(Cl)c3)CCO2)cc1 (stereo not drawn) [Example 163, N-{[4-(3,4-dichlorobenzyl)morpholin-2-yl]methyl}-N′-[4-(methylsulfonyl)benzyl]urea]
CN(C(=O)NCC1CN(Cc2ccc(Cl)c(Cl)c2)CCO1)c1ccncc1 (stereo not drawn) [Example 62, N′-{[4-(3,4-dichlorobenzyl)morpholin-2-yl]methyl}-N-methyl-N-pyridin-4-ylurea]
C#CCNC(=O)NCC1CN(Cc2ccc(Cl)c(Cl)c2)CCO1 (stereo not drawn) [Example 56, N-{[4-(3,4-Dichlorobenzyl)morpholin-2-yl]methyl}-N′-prop-2-ynylurea]
COc1ccc(-c2cc(CNC(=O)NC[C@H]3CN(Cc4ccc(Cl)c(Cl)c4)CCO3)on2)cc1 [Example 142, N-{[(2S)-4-(3,4-dichlorobenzyl)morpholin-2-yl]methyl}-N′-{[3-(4-methoxyphenyl)isoxazol-5-yl]methyl}urea]
O=C(NCc1ccc(C(=O)NC2CC2)cc1)NCC1CN(Cc2ccc(Cl)c(Cl)c2)CCO1 (stereo not drawn) [Example 134, N-cyclopropyl-4-({[({[4-(3,4-dichlorobenzyl)morpholin-2-yl]methyl}amino)carbonyl]amino}methyl)benzamide]
CCOC(=O)N1CCC(NC(=O)NCC2CN(Cc3ccc(Cl)c(Cl)c3)CCO2)CC1 (stereo not drawn) [Example 151, ethyl 4-{[({[4-(3,4-dichlorobenzyl)morpholin-2-yl]methyl}amino)carbonyl]amino}piperidine-1-carboxylate]
